About 60 (5%) of roughly 1,200 compounds were called active. Not shown: some 1% with an inconclusive outcome.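 The calls were made as follows: active = Decreasing signal and fitted IC50 at most twice the top valid tested dose; inconclusive = Bad fit or a level curve showing 30 to 70% inhibition; inactive = the rest.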 This is one part of the list. Measured potencies and affinities stand elsewhere.
Each molecule was assayed against NAD-dependent protein deacylase sirtuin-5, mitochondrial (Homo sapiens) (UniProt Q9NXA8) (assay: SIRT5 desuccinylase inhibitors, dose response, biochemical, fluorescence imaging, cherry-pick, set 5 (AID 720591;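 also: 0% = median of neutral control wells and -100% = median of positive control wells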)). Conditions: Purified SirT5, succinyl-peptide AMC, trypsin-coupled fluorescence; at 15 µM (top of the series) unless noted.

By UniProt entry, the sequences of proteins in these tests, tags left out. Where a name states a change or a piece, a line headed by the entry shows the natural chain unless it says otherwise.
UniProt Q9NXA8: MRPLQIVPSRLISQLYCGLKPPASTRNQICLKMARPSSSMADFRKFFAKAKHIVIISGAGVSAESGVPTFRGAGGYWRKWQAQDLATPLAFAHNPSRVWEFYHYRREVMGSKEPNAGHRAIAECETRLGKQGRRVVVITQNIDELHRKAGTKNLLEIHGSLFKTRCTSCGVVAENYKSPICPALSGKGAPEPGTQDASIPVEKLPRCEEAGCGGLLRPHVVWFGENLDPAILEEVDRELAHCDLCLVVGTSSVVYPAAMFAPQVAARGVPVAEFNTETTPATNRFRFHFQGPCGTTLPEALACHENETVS

Compound | activity change, negative = inhibition
CC(c1ccccc1)n1cnc2ccccc2c1=O (centres undefined) | inactive: -16.7%
CC(C)c1ccc2[nH]c3c(c2c1)[C@@H]1CCN2C(=O)CCC[C@H](C3)[C@H]12 | inactive: -8.44%
COc1cccc(CN(CCC(C)C)S(=O)(=O)c2cc(Br)ccc2Br)c1 | inactive: -21.5%
COCCNCC(=O)C12CC3CC(CC(C3)C1)C2 | inactive: -30.6%
CCOC(=O)N1CCN(C(=O)C2CCC(=O)N(Cc3cccc(C(F)(F)F)c3)C2)CC1 (centres undefined) | inactive: 25.2%
CCOCCCNC(=O)C(c1ccc(Cl)cc1)N(Cc1cccs1)C(=O)c1ccccn1 (centres undefined) | inactive: 30.2%
O=C(Cc1ccc(Cl)cc1Cl)Nc1cccc(S(=O)(=O)Nc2ccccc2F)c1 | inactive: -5.24%
CCn1c(=O)c(C(=O)CN2CCN(S(=O)(=O)c3ccc(C)cc3C)CC2)c(N)n(Cc2ccccc2)c1=O | inactive: -34.5%
COc1ccc(NC(=O)CN2CCN(C(=O)C3CCCO3)CC2)c(OC)c1 (centres undefined) | inactive: 12.7%
O=C(COC(=O)c1ccc(O)cc1O)c1ccc2c(c1)OCCO2 | inactive: -0.843%
Cc1ccc(-n2cc(CN3CCN(Cc4nccn4C)CC3)c(-c3cccc(C)c3)n2)cc1 | inactive: 9.65%
CN(C)CCN1CCN(C2CN(Cc3cn(Cc4ccccc4C(F)(F)F)nn3)S(=O)(=O)C2)CC1 (centres undefined) | inactive: -25.3%
COc1cc(Cl)c(CN2CCCC(CO)(Cc3ccccc3)C2)cc1OC (centres undefined) | inactive: -30.4%
COC(=O)CC1=C(C)C(=O)CC2C(C)(C)CCCC12C (centres undefined) | inactive: 8.94%
Cc1cccc(OC(=O)Nc2ccc(C(=O)O)c(O)c2)c1 | inactive: -32.6%
CCC(C)(C)NC(=O)C(c1ccc(OC)cc1)N(Cc1ccco1)C(=O)CCC(=O)Nc1cc(C)on1 (centres undefined) | inactive: -28.7%
Cc1ccc(F)cc1NC(=O)CCC(=O)c1cccs1 | inactive: 2.04%
O=C(CCNS(=O)(=O)c1ccc(Br)s1)NC1CCCC1 | inactive: 10.6%
Cc1cc(Br)ccc1SCC(=O)OC/C(O)=C(\C#N)c1nc2ccccc2[nH]1 | inactive: -24.9%
Cc1csc(NC(=O)c2ccc(S(C)(=O)=O)cc2)n1 | inactive: 10.2%
C[C@H](CO)N1C[C@H](C)[C@@H](CN(C)S(C)(=O)=O)Oc2ccc(NC(=O)CCN3CCOCC3)cc2C1=O | inactive: -34%
CCOC(=O)C(Cc1ccc(NC(C)=O)cc1)N1C(=O)c2ccccc2C1=O (centres undefined) | inactive: -8.71%

Compound | activity change, negative = inhibition
CC(Oc1ccccc1)C(=O)Nc1nnc(C2CCCCC2)s1 (centres undefined) | inactive: -30%
COc1ccc(-n2c(SCC(N)=O)nnc2-c2ccco2)cc1 | inactive: -23.9%
Cc1ccc2nc(-c3ccccc3)c(Cc3cccc(Cl)c3)n2c1 | inactive: -3.52%
Fc1cccc(F)c1-c1nc(-c2ccncc2)no1 | inactive: 11.2%
C/C=C/c1cccc(-c2nc(C(=O)NC3CCC3)cc3c2[C@@H](CCO)N(S(=O)C(C)(C)C)C3)c1 (some centres undefined) | inactive: 9.99%
CCOC(=O)C1(C)CCN1C(=O)c1cccc(Cl)c1 (centres undefined) | inactive: -3.12%
Cc1ccc(-n2cc(CN(C)Cc3nccn3C)c(-c3ccc(F)cc3)n2)cc1 | inactive: -17.1%
COc1cc(C)c(CN2CCN(CC(=O)Nc3ccccc3C(=O)NC3CC3)CC2)cc1OC | inactive: -25.6%
COc1ccc(CNC(=O)CN2C(=O)C3C4C=CC(C4)C3C2=O)cc1 (centres undefined) | inactive: -8.78%
COc1ccc(N2CCN(C(=O)CN(C)S(=O)(=O)c3cc(C)ccc3OC)CC2)cc1 | inactive: -6.06%
COc1ccc(C(=O)Nc2cccc3cccnc23)cc1OC | inactive: -26.1%
CCOc1ccccc1NC(=O)CN1CCN(C(=O)C2CCCO2)CC1 (centres undefined) | inactive: 4.02%
NC(=O)Cn1c(=O)oc2ccccc21 | inactive: -24%
CC1CCCN(S(=O)(=O)c2cc3c4c(c2)C(C)C(=O)N4CCC3)C1 (centres undefined) | inactive: 23.1%
COc1ccc(CN(C(=O)c2ccco2)c2ccc(C)cc2)cc1OC | inactive: -33.2%
CC1(C)CN(c2ccccc2)N(C(=O)c2ccc(F)cc2)C1=O | inactive: -31.2%
COc1ccc(Nc2c(-c3ccc(C)cc3)nc3cnccn23)cc1 | inactive: -5.55%
CNCc1cc(Br)c(OCC(=O)Nc2ccccc2OC)c(OC)c1 | inactive: 12.6%
Cc1cccc(-n2cc(CN3CCN(Cc4nccn4C)CC3)c(-c3cccc(F)c3)n2)c1 | inactive: -20.1%
Cc1ccc(NC(=O)c2ccc3c(c2)CCN3S(C)(=O)=O)cc1 | inactive: 11.9%
O=S(=O)(CCc1ccncc1)c1ccc(Cl)cc1 | inactive: 7.83%
COc1ccccc1C1CC(=O)Oc2cc(C)c(Br)c(C)c21 (centres undefined) | inactive: -16.1%

Grouped by structure, the entries above containing an NH in an aromatic ring
Compound | activity change, negative = inhibition
CC(C)c1ccc2[nH]c3c(c2c1)[C@@H]1CCN2C(=O)CCC[C@H](C3)[C@H]12 | inactive: -8.44%
Cc1cc(Br)ccc1SCC(=O)OC/C(O)=C(\C#N)c1nc2ccccc2[nH]1 | inactive: -24.9%
